Data as given in US20170267764A1 (INNATE PHARMA, published 2017).
Where a chain is given by its changes, count along the chain named. No constants are given. Whether binding was seen depends on the method and setting. Some entries that bind do so weakly or less than the wild type.

T1: human MICA allele MICA*001 (human, UniProt Q29983 24-297)
T1 sequence: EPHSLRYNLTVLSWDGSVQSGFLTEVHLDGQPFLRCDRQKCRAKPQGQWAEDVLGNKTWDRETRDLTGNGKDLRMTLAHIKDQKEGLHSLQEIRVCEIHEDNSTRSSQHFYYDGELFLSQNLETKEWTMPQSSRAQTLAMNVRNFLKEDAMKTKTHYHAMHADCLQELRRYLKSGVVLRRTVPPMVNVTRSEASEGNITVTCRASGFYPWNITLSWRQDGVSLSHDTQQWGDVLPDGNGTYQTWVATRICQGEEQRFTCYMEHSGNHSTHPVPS

T2: human MICA allele MICA*007 (human, UniProt Q29983 24-297)
T2 construct: Expressed on transfected C1R cells; also called MICA*07; C1R-MICA*007
T2 chain: T1 sequence with T24A, K125E

T3: human MICA allele MICA*004 (human, UniProt Q29983 24-297)
T3 construct: Expressed on transfected C1R cells; also called MICA*04; C1R-MICA*004
T3 chain: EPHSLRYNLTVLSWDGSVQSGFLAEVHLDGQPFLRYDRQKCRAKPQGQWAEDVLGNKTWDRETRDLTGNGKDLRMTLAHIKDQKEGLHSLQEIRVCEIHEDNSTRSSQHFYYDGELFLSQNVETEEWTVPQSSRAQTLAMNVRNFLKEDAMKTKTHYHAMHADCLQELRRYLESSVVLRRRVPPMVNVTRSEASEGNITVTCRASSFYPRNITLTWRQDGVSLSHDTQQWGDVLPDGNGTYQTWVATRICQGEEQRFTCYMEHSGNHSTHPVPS

T4: human MICA allele MICA*008 (human, UniProt Q29983 24-297)
T4 chain: T3 chain with V122L, S175G, R181T, T213I, Q251R

B1: mAb4 (antibody, V domains shown)
VH: QVQLQESGPGLVKPSETLSLTCTVSGYSITSDYAWNWIRQPPGKGLEWMGFVSYSGTTKYNPSLKSRVTISRDTSKNQFSLKLSSVTAADTAVYYCARGYGFDYWGQGTTVTVSS
VL: EIVLTQSPATLSLSPGERATLSCSATSSISSIYFHWYQQKPGQAPRLLIYRTSNLASGIPARFSGSGSGTDYTLTISSLEPEDFAVYYCQQGTTIPFTFGQGTKLEIK
notes: Produced in CHO cells as human IgG1 with huCk constant domain
B2: mAb11 (antibody, V domains shown)
VH: B1 VH with V68I, K76E
VL: B1 VL with D71S
notes: as for B1
B3: mAb5 (antibody, V domains shown)
VH: B1 VH
VL: B1 VL with D71S
notes: as for B1
B4: mAb6 (antibody, V domains shown)
VH: B1 VH
VL: B1 VL with F84V
notes: as for B1
B5: mAb8 (antibody, V domains shown)
VH: B1 VH with K76E
VL: B1 VL with D71S
notes: as for B1
B6: mAb12 (antibody, V domains shown)
VH: B1 VH with V68I, K76E
VL: B1 VL with F84V
notes: as for B1
B7: mAb7 (antibody, V domains shown)
VH: B1 VH with K76E
VL: B1 VL
notes: as for B1
B8: mAb9 (antibody, V domains shown)
VH: B1 VH with K76E
VL: B1 VL with F84V
notes: as for B1
B9: mAb10 (antibody, V domains shown)
VH: B1 VH with V68I, K76E
VL: B1 VL
notes: as for B1

Molecular target: T1, human MICA allele MICA*001
Test: flow cytometry, C1R-MICA*001 transfectant cells
Procedure: (§1) The binding of the antibodies in Table 2 of Example 1 were tested for binding to MICA-expressing C1R transfectant cells (ATCC reference CRL-1993™) transfected with RSV.5neo vectors (GenBank (NCBI) under Accession number M83237), as described in Salih et al. (2003) Blood 102(4): […], referred to as C1R-MICA*001, C1R-MICA*004, C1R-MICA*007 and C1R-MICA*008. Binding was analyzed by flow cytometry.
(§2) Cells were harvested and stained in PBS 1×/BSA 0.2%/EDTA 2 mM buffer during 30 minutes at 4° C. using a dose-range of the anti-MICA mAbs. After two washes in staining buffer, cells were stained for 30 min at 4° C. with mouse anti-human IgG1-PE monoclonal antibodies (1/11). After two washes, stainings were acquired on a BD FACS Canto II and analyzed using the FlowJo software.

binding | Binder
binds | B1
binds | B2
binds | B3
binds | B4
binds | B5
binds | B6
binds | B7
binds | B8
binds | B9

Molecular target: T2, human MICA allele MICA*007
Test: flow cytometry, C1R-MICA*007 transfectant cells
Procedure: as §1, §2

binding | Binder
binds | B1
binds | B2
binds | B3
binds | B4
binds | B5
binds | B6
binds | B7
binds | B8
binds | B9

Molecular target: T3, human MICA allele MICA*004
Test: flow cytometry, C1R-MICA*004 transfectant cells
Procedure: as §1, §2

binding | Binder
binds | B1
binds | B2
binds | B3
binds | B4
binds | B5
binds | B6
binds | B7
binds | B8
binds | B9

Molecular target: T4, human MICA allele MICA*008
Test: flow cytometry, C1R-MICA*008 transfectant cells
Procedure: as §1, §2

binding | Binder
binds | B1
binds | B2
binds | B3
binds | B4
binds | B5
binds | B6
binds | B7
binds | B8
binds | B9
